# Values quoted from earlier work, collected in patent publication US20240166599A1, “INDOLE DERIVATIVES AS SEROTONERGIC AGENTS USEFUL FOR THE TREATMENT OF DISORDERS RELATED THERETO” (Mindset Pharma Inc., priority 2021, published 2024).
# For at least one compound, name, drawing or mass did not settle the structure.
# Conditions: tobacco use disorder; cited from earlier work
structure (smiles),measurement,value
"CN(C)CCc1c[nH]c2cccc(OP(=O)(O)O)c12 [psilocybin, 4-phosphoryloxy-N,N-dimethyltrypatmine]",abstinence rate at 12 months follow-up,67%
same,abstinence rate at six months follow-up,80%
